# Values quoted from earlier work as cited in US5120322A, “Method and apparatus for treatment of fibrotic lesions” (Lathrotec, Inc., priority 1990, dated 1992).
# The name of at least one read-out is uncertain.
# System: healing wound scars
# Conditions: cited from earlier work
smiles,measurement,value
"N#CCCN [BAPN, Beta-aminopropionitrile]",effective topical dose relative to the systemically effective dose,approximately 1/100th
